Test results taken from US9090583B2, “Benzopyrone estrogen receptor regulator” (BEIJING SHENOGEN PHARMA GROUP LTD., priority 2010, dated 2015).

Legend:
Format in all cases: cell-based
[1] = system: HL-60 cells; experiment: CellTiter-Glo Luminescent Cell Viability Assay on leukemia HL-60 cells; settings: Homo sapiens, 72 hours, read-out: Inhibition of the viability of leukemia cells, IC50
Procedure: B: In Vitro CellTiter-Glo® Luminescent Cell Viability Assay on Leukemia HL-60 Cells
(§1) The leukemia HL-60 cells were obtained from ATCC and maintained in IMDM and 10% fetal calf serum at 37° C., under 5% CO2 atmosphere. The cells were seeded on 96-well plate at a density of 6×10^3 cells per well. HL-60 cells were treated with a test compound dissolved in DMSO at the concentrations of zero, 0.3 μM, 0.5 μM, 1 μM, 2 μM, 3 μM, 5 μM, 10 μM, 20 μM, 30 μM, 50 μM and 100 μM for 72 hours. Treated cells were examined by CellTiter-Glo® Luminescent Cell Viability Assay Kit (Promega), and luminescence values were recorded with Envision.

[2] = system: Molt-4 cells; experiment: CellTiter-Glo Luminescent Cell Viability Assay on leukemia Molt-4 cells; settings: Homo sapiens, 72 hours, read-out: Inhibition of the viability of leukemia cells, IC50
Procedure: C: In Vitro CellTiter-Glo® Luminescent Cell Viability Assay on Leukemia Molt-4 Cells
as §1, with “leukemia Molt-4” for “leukemia HL-60”, “in RPMI-1640” for “in IMDM”, “well. […]” for “well. HL-60”

[3] = system: HEC-1A cells; experiment: CellTiter-Glo Luminescent assay on endometrial cancer HEC-1A cells; settings: Homo sapiens, 72 hours, read-out: Inhibition of the viability of endometrial cancer cells, IC50
Procedure: CellTiter-Glo® Luminescent Assay to Measure the Inhibitory Activity of the Compounds on In Vitro Growth of Endometrial Cancer HEC-1A Cells
as §1, with “HEC-1A cells are endometrial cancer cell lines only expressing ER-36. Human endometrial cancer HEC-1A” for “The leukemia HL-60”, “DMEM” for “IMDM”, “HEC-1A” for “HL-60”, “5” for “5 μM, 10”

[4] = system: K562 cells; experiment: CellTiter-Glo Luminescent Cell Viability Assay on leukemia K562 cells; settings: Homo sapiens, 72 hours, read-out: Inhibition of the viability of leukemia cells, IC50
Procedure: A: In Vitro CellTiter-Glo® Luminescent Cell Viability Assay on Leukemia K562 Cells
as §1, with “K562” for “HL-60”

`CC/C(=C(\c1ccccc1)c1ccc(OCCN(C)C)cc1)c1ccccc1` [Tamoxifen, reference compound] showed an IC50 [1] of 8.19 ± 3.89 µM, an IC50 [2] of 11.7 µM and an IC50 [3] of 19.5 µM. The IC50 [4] was 18.2 ± 5.65 µM.
